Measurements as given in the supplement of paper PMC6078165.

Tested on: HCC1143
Assay: relative JC-1 red fluorescence (viability) vs pre-drug, coculture with fibroblast (fraction); higher = more viable cancer cells
Description: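 JC-1 labelled TNBC cells cocultured 1:1 (1,500 cells each) with CellTrace Violet stained primary or stromal fibroblasts in 384-well plates in FluoroBrite medium, treated with one of 42 anticancer drugs at 0.1, 1, 10 or 100 uM. JC-1 red fluorescence (mitochondrial integrity in cancer cells only) was read by plate reader every 8 h for 72 h. Values are normalised to each well's pre-drug value. The stock of one drug was tenfold lower, so its dose labels may be too high.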

CC(C)C[C@H](NC(=O)[C@@H](COC(C)(C)C)NC(=O)[C@H](Cc1ccc(O)cc1)NC(=O)[C@H](CO)NC(=O)[C@H](Cc1c[nH]c2ccccc12)NC(=O)[C@H](Cc1cnc[nH]1)NC(=O)[C@@H]1CCC(=O)N1)C(=O)N[C@@H](CCCNC(=N)N)C(=O)N1CCC[C@H]1C(=O)NNC(N)=O [Goserelin]
relative JC-1 red fluorescence
Conditions	8 h	16 h	24 h	32 h	40 h	48 h	56 h	64 h	72 h
0.1 µM, coculture fibroblast: C12385	0.846	0.761	0.695	0.628	0.558	0.512	0.464	0.418	0.397
0.1 µM, coculture fibroblast: H6013	0.719	0.619	0.563	0.542	0.469	0.456	0.42	0.404	0.374
0.1 µM, coculture fibroblast: H6019	0.792	0.716	0.663	0.601	0.55	0.522	0.473	0.427	0.397
0.1 µM, coculture fibroblast: H6076	0.7906	0.798	0.748	0.691	0.648	0.621	0.591	0.566	0.573
0.1 µM, coculture fibroblast: H6231	0.809	0.803	0.747	0.633	0.658	0.625	0.581	0.547	0.517
0.1 µM, coculture fibroblast: HADF	0.773	0.688	0.659	0.649	0.545	0.516	0.477	0.45	0.424
0.1 µM, coculture fibroblast: HCFa	0.816	0.759	0.728	0.713	0.628	0.6	0.553	0.509	0.481
0.1 µM, coculture fibroblast: HCPF	0.826	0.8	0.732	0.6473	0.624	0.587	0.547	0.514	0.495
0.1 µM, coculture fibroblast: HHSteC	0.8106	0.713	0.67	0.624	0.543	0.519	0.463	0.433	0.384
0.1 µM, coculture fibroblast: HMF	0.794	0.851	0.7811	0.67	0.676	0.638	0.598	0.562	0.525
0.1 µM, coculture fibroblast: HPFa	0.8855	0.783	0.739	0.637	0.572	0.534	0.462	0.407	0.364
0.1 µM, coculture fibroblast: HUF	0.846	0.754	0.71	0.63	0.569	0.543	0.487	0.454	0.424
0.1 µM, coculture fibroblast: Hs5	0.841	0.882	0.815	0.765	0.699	0.661	0.622	0.58	0.56
0.1 µM, coculture fibroblast: Hs27A	0.715	0.614	0.574	0.586	0.461	0.439	0.388	0.356	0.338
0.1 µM, coculture fibroblast: Hs343T	0.805	0.832	0.766	0.681	0.6439	0.603	0.552	0.523	0.501
0.1 µM, coculture fibroblast: WS1	0.8008	0.7338	0.6685	0.58	0.51	0.462	0.4114	0.369	0.338
1 µM, coculture fibroblast: C12385	0.849	0.795	0.737	0.651	0.581	0.547	0.502	0.465	0.448
1 µM, coculture fibroblast: H6013	0.78928	0.6979	0.6597	0.647	0.578	0.566	0.532	0.516	0.474
1 µM, coculture fibroblast: H6019	0.792	0.693	0.652	0.5913	0.543	0.525	0.48	0.431	0.394
1 µM, coculture fibroblast: H6076	0.785	0.751	0.705	0.679	0.645	0.638	0.603	0.586	0.596
1 µM, coculture fibroblast: H6231	0.8177	0.782	0.7053	0.635	0.612	0.58	0.538	0.511	0.482
1 µM, coculture fibroblast: HADF	0.765	0.695	0.668	0.672	0.605	0.59	0.557	0.544	0.518
1 µM, coculture fibroblast: HCFa	0.832	0.761	0.725	0.72	0.641	0.607	0.562	0.526	0.491
1 µM, coculture fibroblast: HCPF	0.814	0.779	0.7098	0.664	0.643	0.616	0.582	0.552	0.542
1 µM, coculture fibroblast: HHSteC	0.8	0.691	0.656	0.615	0.534	0.503	0.459	0.426	0.384
1 µM, coculture fibroblast: HMF	0.817	0.742	0.684	0.681	0.608	0.596	0.569	0.546	0.53092
1 µM, coculture fibroblast: HPFa	0.8974	0.817	0.7722	0.689	0.617	0.582	0.525	0.478	0.4316
1 µM, coculture fibroblast: HUF	0.8788	0.788	0.723	0.643	0.589	0.561	0.508	0.474	0.439
1 µM, coculture fibroblast: Hs5	0.885	0.777	0.753	0.799	0.798	0.786	0.771	0.755	0.772
1 µM, coculture fibroblast: Hs27A	0.7437	0.691	0.65	0.661	0.566	0.564	0.527	0.501	0.455
1 µM, coculture fibroblast: Hs343T	0.7928	0.823	0.711	0.621	0.592	0.55	0.493	0.467	0.44
1 µM, coculture fibroblast: WS1	0.827	0.736	0.67	0.581	0.511	0.471	0.417	0.368	0.345
10 µM, coculture fibroblast: C12385	0.864	0.7623	0.7	0.639	0.582	0.535	0.497	0.449	0.419
10 µM, coculture fibroblast: H6013	0.7624	0.673	0.643	0.637	0.553	0.538	0.504	0.4886	0.4615
10 µM, coculture fibroblast: H6019	0.8	0.735	0.686	0.628	0.594	0.563	0.506	0.458	0.422
10 µM, coculture fibroblast: H6076	0.808	0.844	0.792	0.73822	0.6984	0.682	0.654	0.633	0.643
10 µM, coculture fibroblast: H6231	0.83	0.836	0.735	0.618	0.625	0.588	0.543	0.503	0.476
10 µM, coculture fibroblast: HADF	0.725	0.641	0.607	0.605	0.505	0.478	0.443	0.411	0.4
10 µM, coculture fibroblast: HCFa	0.795	0.6905	0.636	0.622	0.536	0.511	0.463	0.419	0.396
10 µM, coculture fibroblast: HCPF	0.8136	0.845	0.784	0.637	0.682	0.633	0.599	0.563	0.543
10 µM, coculture fibroblast: HHSteC	0.832	0.762	0.732	0.693	0.637	0.616	0.567	0.536	0.473
10 µM, coculture fibroblast: HMF	0.831	0.867	0.776	0.667	0.67	0.639	0.588	0.549	0.514
10 µM, coculture fibroblast: HPFa	0.913	0.81	0.781	0.681	0.629	0.594	0.532	0.478	0.435
10 µM, coculture fibroblast: HUF	0.8783	0.782	0.716	0.638	0.575	0.533	0.476	0.433	0.399
10 µM, coculture fibroblast: Hs5	0.864	0.874	0.833	0.802	0.737	0.704	0.673	0.645	0.627
10 µM, coculture fibroblast: Hs27A	0.691	0.59	0.546	0.552	0.421	0.387	0.346	0.313	0.306
10 µM, coculture fibroblast: Hs343T	0.8024	0.836	0.76	0.659	0.658	0.614	0.556	0.529	0.488
10 µM, coculture fibroblast: WS1	0.842	0.745	0.699	0.63	0.5793	0.534	0.484	0.432	0.401
100 µM, coculture fibroblast: C12385	0.8468	0.751	0.697	0.625	0.56	0.508	0.461	0.415	0.386
100 µM, coculture fibroblast: H6013	0.775	0.713	0.665	0.643	0.568	0.551	0.516	0.5	0.455
100 µM, coculture fibroblast: H6019	0.8274	0.741	0.6958	0.6302	0.5822	0.557	0.5078	0.462	0.4277
100 µM, coculture fibroblast: H6076	0.847	0.8879	0.878	0.865	0.853	0.855	0.701	0.832	0.784
100 µM, coculture fibroblast: H6231	0.845	0.841	0.7938	0.744	0.722	0.7	0.667	0.631	0.606
100 µM, coculture fibroblast: HADF	0.782	0.7249	0.693	0.701	0.627	0.609	0.587	0.559	0.543
100 µM, coculture fibroblast: HCFa	0.795	0.71	0.6638	0.6485	0.5615	0.534	0.4861	0.4464	0.4119
100 µM, coculture fibroblast: HCPF	0.8545	0.8407	0.806	0.769	0.75	0.726	0.708	0.688	0.687
100 µM, coculture fibroblast: HHSteC	0.859	0.795	0.773	0.76	0.673	0.64	0.596	0.563	0.521
100 µM, coculture fibroblast: HMF	0.8254	0.83	0.759	0.681	0.673	0.644	0.6	0.571	0.549
100 µM, coculture fibroblast: HPFa	0.931	0.844	0.816	0.737	0.666	0.637	0.569	0.523	0.466
100 µM, coculture fibroblast: HUF	0.8875	0.8188	0.7687	0.7007	0.6559	0.624	0.57	0.54	0.511
100 µM, coculture fibroblast: Hs5	0.8615	0.85	0.806	0.77278	0.6932	0.6619	0.6152	0.5862	0.578
100 µM, coculture fibroblast: Hs27A	0.771	0.713	0.671	0.683	0.565	0.559	0.51	0.482	0.446
100 µM, coculture fibroblast: Hs343T	0.84	0.857	0.8044	0.745	0.703	0.668	0.617	0.589	0.561
100 µM, coculture fibroblast: WS1	0.845	0.763	0.737	0.668	0.616	0.578	0.533	0.4974	0.4736

Values are relative to the signal before dosing, not to a vehicle control; the signal also falls without drug.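 Fibroblast labels name human fibroblasts: mostly primary ones from tissues such as uterus (C12385, HUF), lung (H6013), bone (Hs27A), adrenal (HADF) and skin (WS1), plus mammary HMF and breast cancer-associated Hs343T. The cancer cells are basal-like or mesenchymal-like triple-negative breast cancer lines. The paper calls a changed response a hit when it shifts by more than 3x the replicate standard deviation. The tissue of the other fibroblasts is not given here.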
